Publication PMC8844120
These are yes or no findings as the source states them, for the method shown. In cells and extracts the contact can be indirect. Some binding calls cover weakened binding; strength is not graded here. Sequences can lack the tags named with a protein.

Molecular target: T1, FLAG-Sirt1 (from pCDH-FLAG-Sirt1) (UniProt Q923E4)
T1 sequence: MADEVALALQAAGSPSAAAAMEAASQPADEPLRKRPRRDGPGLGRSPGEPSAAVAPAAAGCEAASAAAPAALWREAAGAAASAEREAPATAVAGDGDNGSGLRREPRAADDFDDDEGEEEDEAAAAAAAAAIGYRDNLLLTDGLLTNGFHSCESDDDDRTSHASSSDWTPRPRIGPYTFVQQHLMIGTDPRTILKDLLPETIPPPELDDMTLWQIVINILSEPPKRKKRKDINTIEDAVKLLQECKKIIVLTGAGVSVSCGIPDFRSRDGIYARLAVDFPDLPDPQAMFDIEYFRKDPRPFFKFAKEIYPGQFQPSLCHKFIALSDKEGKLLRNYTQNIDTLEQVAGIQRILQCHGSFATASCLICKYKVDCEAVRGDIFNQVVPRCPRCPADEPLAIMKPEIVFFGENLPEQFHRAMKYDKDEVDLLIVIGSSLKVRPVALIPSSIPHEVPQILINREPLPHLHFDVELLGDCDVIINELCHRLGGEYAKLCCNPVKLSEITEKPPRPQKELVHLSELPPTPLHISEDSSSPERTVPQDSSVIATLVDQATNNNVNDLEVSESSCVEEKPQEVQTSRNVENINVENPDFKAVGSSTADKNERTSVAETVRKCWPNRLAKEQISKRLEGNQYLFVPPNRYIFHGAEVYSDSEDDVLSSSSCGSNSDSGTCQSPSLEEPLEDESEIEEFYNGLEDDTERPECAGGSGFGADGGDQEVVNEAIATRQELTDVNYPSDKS
Experiment: co-IP; lysates of C3H10T1/2 cells infected with lentivirus (72 h for NAP1L2-FLAG); procedure as in a cited paper; which protein was precipitated is not told

binding: binds
B1: NAP1L2 (nucleosome assembly protein 1-like 2), endogenous (protein, UniProt P51860 1-460)
chain: MAESVDHKELSESNQEELGSQVMAEGPGESQDRSEGVSIEPGDGGQHGEETVAAGVGEEGKGEEAAAGSGEDAGKCGGTDEDSDSDRPKGLIGYLLDTDFVESLPVKVKCRVLALKKLQTRAAHLESKFLREFHDIERKFAEMYQPLLEKRRQIINAVYEPTEEECEYKSDCEDYFEEEMDEEEETNGNEDGMVHEYVDEDDGYEDCYYDYDDEEEEEEEDDSAGATGGEEVNEEDPKGIPDFWLTVLKNVEALTPMIKKYDEPILKLLTDIKVKLSDPGEPLSFTLEFHFKPNEYFKNELLTKTYVLKSKLACYDPHPYRGTAIEYATGCDIDWNEGKNVTLRTIKKKQRHRVWGTVRTVTEDFPKDSFFNFFSPHGISLNGGDENDDFLLGHNLRTYIIPRSVLFFSGDALESQQEGVVREVNDEIYDKIIYDDWMAAIEEVKACCKNLEALVEDIDR
